Values of other authors, collected in patent publication US20100173381A1, “CRYSTAL STRUCTURES OF HIV-1 PROTEASE INHIBITORS BOUND TO HIV-1 PROTEASE” (UNIVERSITY OF MASSACHUSETTS, priority 2006, published 2010).
At least one compound was matched to its structure with a doubt left.

System: drug-resistant mutants

## CCC[C@@]1(CCc2ccccc2)CC(O)=C([C@H](CC)c2cccc(NS(=O)(=O)c3ccc(C(F)(F)F)cn3)c2)C(=O)O1 [TPV, tipranavir]
  binding to drug-resistant mutants: bind to drug-resistant mutants
